# The supplement of paper PMC12819154, “High-throughput peptide-centric local stability assay extends protein–ligand identification to membrane proteins, tissues and bacteria” (Nature Structural & Molecular Biology, 2025)
# Protein sequences, listed by entry. Tags and fused reporters are not part of them. Lines headed by an entry give the natural chain unless they say otherwise; changes in a name come on top.
# UniProt P42338: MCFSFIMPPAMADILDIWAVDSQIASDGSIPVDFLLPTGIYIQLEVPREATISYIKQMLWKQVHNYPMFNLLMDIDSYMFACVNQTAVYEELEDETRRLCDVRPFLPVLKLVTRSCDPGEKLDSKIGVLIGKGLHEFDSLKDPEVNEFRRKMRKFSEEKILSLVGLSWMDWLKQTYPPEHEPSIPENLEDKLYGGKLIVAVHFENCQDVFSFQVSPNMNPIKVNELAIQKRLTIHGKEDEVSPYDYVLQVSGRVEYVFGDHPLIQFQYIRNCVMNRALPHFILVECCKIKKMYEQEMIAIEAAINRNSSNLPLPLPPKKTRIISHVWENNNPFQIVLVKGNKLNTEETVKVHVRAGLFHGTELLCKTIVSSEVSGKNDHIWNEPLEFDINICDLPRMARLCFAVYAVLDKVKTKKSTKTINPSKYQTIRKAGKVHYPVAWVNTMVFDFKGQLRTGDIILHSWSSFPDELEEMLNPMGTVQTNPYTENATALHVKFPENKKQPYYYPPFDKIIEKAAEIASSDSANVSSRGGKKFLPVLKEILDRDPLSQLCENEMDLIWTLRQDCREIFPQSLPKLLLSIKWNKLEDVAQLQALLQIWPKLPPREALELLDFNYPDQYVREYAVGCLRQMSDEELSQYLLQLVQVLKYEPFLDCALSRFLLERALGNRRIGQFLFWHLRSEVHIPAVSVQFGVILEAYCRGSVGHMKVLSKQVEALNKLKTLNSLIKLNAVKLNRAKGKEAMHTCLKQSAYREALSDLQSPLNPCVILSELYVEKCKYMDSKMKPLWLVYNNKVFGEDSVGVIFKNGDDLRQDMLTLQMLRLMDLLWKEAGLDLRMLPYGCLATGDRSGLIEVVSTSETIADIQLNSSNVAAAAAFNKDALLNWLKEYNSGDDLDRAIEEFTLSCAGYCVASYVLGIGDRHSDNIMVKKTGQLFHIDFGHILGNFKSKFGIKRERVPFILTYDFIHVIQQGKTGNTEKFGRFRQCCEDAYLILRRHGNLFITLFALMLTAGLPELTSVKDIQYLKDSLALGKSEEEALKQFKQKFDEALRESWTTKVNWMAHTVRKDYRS
# UniProt P35637: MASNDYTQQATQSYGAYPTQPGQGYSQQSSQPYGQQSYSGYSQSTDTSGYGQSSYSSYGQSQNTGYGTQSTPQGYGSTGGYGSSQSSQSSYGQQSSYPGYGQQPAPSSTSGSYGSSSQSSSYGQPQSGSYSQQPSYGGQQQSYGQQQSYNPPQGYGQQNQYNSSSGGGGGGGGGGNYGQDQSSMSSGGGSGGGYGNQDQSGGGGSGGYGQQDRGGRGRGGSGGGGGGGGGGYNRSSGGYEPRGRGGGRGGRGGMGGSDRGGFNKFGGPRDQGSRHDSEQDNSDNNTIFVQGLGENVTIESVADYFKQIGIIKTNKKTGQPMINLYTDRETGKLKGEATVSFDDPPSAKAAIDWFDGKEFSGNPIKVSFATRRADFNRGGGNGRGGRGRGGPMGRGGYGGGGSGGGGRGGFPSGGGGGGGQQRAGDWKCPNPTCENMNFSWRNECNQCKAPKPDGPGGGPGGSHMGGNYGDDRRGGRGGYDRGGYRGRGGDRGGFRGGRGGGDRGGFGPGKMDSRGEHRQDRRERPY
# UniProt P38432, whole entry: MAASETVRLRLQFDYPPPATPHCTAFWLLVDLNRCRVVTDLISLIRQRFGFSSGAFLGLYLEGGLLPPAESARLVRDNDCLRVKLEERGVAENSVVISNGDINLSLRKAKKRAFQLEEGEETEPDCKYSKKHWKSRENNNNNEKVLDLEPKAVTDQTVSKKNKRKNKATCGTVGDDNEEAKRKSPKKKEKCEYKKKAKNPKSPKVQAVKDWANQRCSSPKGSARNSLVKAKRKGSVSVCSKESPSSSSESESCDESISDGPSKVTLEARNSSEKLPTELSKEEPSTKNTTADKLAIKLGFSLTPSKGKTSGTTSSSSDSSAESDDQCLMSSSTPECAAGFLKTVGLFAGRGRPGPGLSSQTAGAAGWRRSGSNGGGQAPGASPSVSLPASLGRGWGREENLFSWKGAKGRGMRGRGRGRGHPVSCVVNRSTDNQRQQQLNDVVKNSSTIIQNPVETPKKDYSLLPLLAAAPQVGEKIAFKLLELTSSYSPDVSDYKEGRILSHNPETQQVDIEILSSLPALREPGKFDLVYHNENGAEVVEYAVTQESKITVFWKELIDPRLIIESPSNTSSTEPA
# UniProt P40938, whole entry: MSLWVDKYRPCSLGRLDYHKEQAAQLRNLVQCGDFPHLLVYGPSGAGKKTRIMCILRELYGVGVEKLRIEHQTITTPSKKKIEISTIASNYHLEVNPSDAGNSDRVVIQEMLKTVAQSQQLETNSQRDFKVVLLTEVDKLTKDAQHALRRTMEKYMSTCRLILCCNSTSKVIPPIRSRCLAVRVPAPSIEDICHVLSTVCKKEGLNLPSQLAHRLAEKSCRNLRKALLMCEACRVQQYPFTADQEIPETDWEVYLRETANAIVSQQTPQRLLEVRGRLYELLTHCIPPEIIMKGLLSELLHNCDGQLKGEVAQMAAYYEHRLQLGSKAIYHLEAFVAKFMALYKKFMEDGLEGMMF
# UniProt P37108: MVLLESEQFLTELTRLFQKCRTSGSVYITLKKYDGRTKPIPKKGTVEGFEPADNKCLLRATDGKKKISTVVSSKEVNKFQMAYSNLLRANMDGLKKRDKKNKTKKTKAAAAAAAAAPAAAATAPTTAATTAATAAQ
# UniProt P30041: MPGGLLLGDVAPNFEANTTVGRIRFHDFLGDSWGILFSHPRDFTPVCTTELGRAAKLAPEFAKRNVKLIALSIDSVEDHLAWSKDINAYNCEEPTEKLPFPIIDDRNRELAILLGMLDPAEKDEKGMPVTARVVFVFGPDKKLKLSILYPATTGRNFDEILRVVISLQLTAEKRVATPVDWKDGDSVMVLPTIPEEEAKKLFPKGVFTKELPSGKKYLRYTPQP
# UniProt P35670: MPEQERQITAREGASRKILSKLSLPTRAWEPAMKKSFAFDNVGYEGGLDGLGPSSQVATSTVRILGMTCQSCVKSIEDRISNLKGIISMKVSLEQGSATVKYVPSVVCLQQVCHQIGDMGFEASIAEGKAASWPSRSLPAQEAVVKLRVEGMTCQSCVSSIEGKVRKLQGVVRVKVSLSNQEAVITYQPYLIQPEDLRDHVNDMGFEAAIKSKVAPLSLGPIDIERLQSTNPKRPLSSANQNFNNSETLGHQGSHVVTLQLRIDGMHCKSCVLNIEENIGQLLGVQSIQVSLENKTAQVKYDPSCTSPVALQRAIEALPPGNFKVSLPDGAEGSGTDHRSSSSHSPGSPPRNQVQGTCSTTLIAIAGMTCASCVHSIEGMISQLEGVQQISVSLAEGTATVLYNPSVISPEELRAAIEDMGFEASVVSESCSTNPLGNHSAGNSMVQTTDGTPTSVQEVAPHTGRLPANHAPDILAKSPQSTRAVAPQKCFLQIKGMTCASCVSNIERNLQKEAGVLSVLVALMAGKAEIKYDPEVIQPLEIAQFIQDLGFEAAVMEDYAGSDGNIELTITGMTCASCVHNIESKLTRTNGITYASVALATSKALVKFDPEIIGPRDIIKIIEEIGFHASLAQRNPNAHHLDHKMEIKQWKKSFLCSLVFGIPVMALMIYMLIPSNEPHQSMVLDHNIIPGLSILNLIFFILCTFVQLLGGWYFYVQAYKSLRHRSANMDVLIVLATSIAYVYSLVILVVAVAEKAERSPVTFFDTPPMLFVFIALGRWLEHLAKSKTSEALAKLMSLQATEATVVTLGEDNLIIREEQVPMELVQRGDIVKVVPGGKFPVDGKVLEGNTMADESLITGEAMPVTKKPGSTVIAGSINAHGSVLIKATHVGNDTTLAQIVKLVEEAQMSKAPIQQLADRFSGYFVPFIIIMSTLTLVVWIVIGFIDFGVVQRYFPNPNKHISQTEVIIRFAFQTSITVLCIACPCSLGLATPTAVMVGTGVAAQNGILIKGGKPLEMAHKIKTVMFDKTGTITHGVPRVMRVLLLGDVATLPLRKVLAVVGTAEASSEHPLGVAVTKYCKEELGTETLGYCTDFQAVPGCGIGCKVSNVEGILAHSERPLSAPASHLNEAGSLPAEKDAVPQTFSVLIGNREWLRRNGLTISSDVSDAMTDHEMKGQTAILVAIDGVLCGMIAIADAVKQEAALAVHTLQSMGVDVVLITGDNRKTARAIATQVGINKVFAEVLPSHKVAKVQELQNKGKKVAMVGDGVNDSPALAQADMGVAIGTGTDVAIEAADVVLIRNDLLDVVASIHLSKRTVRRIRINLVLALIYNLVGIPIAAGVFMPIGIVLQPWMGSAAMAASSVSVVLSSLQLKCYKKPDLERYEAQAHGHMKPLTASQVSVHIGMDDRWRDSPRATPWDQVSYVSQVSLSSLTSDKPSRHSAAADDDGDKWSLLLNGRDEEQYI
# UniProt P42166: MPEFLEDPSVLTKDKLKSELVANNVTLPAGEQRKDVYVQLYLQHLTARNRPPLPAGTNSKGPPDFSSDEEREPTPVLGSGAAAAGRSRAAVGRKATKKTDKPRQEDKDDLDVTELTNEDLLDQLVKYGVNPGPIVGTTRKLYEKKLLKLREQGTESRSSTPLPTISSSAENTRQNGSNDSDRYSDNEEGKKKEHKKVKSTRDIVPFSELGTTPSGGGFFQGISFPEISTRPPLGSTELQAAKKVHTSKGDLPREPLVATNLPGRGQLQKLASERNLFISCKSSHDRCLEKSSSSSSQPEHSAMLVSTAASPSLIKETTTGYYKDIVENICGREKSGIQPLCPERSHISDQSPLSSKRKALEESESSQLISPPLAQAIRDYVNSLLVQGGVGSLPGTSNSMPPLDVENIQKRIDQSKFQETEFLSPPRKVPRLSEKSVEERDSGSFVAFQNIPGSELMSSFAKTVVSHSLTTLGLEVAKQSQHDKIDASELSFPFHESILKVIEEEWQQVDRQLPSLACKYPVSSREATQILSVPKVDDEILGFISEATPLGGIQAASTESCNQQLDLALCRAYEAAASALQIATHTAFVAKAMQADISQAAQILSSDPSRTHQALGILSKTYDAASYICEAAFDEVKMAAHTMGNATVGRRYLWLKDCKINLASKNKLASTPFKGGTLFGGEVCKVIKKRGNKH
# UniProt P40261: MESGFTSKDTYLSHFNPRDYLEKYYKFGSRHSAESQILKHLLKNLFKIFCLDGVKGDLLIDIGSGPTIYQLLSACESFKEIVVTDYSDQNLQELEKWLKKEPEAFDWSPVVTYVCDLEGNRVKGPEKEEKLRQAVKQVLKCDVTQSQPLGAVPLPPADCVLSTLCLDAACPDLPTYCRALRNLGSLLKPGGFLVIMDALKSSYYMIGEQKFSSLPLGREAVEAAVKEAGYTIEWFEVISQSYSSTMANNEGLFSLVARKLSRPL
# UniProt P40121: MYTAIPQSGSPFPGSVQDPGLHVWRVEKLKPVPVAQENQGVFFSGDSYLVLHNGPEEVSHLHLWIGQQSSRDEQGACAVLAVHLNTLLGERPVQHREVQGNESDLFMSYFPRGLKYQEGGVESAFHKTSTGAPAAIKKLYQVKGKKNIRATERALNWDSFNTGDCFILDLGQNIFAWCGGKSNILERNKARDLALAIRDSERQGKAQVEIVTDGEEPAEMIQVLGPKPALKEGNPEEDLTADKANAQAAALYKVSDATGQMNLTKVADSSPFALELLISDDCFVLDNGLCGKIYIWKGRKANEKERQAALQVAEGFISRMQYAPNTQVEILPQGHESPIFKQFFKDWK
# UniProt P32314: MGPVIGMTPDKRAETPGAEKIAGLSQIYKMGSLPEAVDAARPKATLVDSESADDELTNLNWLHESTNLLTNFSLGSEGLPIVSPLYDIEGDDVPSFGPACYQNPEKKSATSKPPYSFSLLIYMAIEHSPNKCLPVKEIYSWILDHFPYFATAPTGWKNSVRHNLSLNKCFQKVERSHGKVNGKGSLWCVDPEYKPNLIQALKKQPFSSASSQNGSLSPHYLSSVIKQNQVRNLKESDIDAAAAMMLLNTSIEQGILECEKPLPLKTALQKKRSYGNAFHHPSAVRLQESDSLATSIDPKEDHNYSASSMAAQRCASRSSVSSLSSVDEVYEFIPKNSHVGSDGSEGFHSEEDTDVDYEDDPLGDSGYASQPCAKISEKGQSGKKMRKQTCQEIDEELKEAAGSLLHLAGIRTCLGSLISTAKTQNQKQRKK
# The list shows a part of the results. Small differences around the control level are noise.
# Compound: Cc1nc(Nc2ncc(C(=O)Nc3c(C)cccc3Cl)s2)cc(N2CCN(CCO)CC2)n1 [dasatinib]
# Experiment: log2 fold change of tryptic peptide abundance, ligand vs vehicle (limited proteolysis) (log2 ratio); higher = more trypsin-susceptible (destabilized)
# Conditions: ligand concentration: 5 uM; sample: K562 cleared lysate
row,Target,log2 fold change
1,"PIK3CB (peptide sequence: CKYMDSK, peptide start residue: 776) (UniProt P42338)",0.719
2,"FUS (peptide sequence: KTGQPMINLYTDRETGK, peptide start residue: 316) (UniProt P35637)",0.16
3,"COIL (peptide sequence: NSSEKLPTELSK, peptide start residue: 270) (UniProt P38432)",-0.738
4,"RFC3 (peptide sequence: KALLMCEACR, peptide start residue: 225) (UniProt P40938)",0.772
5,"SRP14 (peptide sequence: ANMDGLKK, peptide start residue: 89) (UniProt P37108)",-0.288
6,"PRDX6 (peptide sequence: DINAYNCEEPTEKLPFPIIDDR, peptide start residue: 85) (UniProt P30041)",0.331
7,"ATP7B (peptide sequence: ILGMTCQSCVK, peptide start residue: 64) (UniProt P35670)",0.116
8,"TMPO (peptide sequence: THQALGILSK, peptide start residue: 611) (UniProt P42166)",-0.0743
9,"NNMT (peptide sequence: FSSLPLGR, peptide start residue: 211) (UniProt P40261)",0.154
10,"CAPG (peptide sequence: VSDATGQMNLTK, peptide start residue: 254) (UniProt P40121)",0.124
11,"UniProt P32314 (peptide sequence: EDHNYSASSMAAQR, peptide start residue: 300)",-0.243

# Part of the list above, with tabs.
row	Target	log2 fold change
3	COIL (peptide sequence: NSSEKLPTELSK, peptide start residue: 270) (UniProt P38432)	-0.738
4	RFC3 (peptide sequence: KALLMCEACR, peptide start residue: 225) (UniProt P40938)	0.772
